The values below come from the supplement of paper PMC7666118.

Amino acid sequences for entries named in this document (tags omitted). A change or cut given only in a name is not applied to a line headed by its entry.
UniProt P27540, whole entry: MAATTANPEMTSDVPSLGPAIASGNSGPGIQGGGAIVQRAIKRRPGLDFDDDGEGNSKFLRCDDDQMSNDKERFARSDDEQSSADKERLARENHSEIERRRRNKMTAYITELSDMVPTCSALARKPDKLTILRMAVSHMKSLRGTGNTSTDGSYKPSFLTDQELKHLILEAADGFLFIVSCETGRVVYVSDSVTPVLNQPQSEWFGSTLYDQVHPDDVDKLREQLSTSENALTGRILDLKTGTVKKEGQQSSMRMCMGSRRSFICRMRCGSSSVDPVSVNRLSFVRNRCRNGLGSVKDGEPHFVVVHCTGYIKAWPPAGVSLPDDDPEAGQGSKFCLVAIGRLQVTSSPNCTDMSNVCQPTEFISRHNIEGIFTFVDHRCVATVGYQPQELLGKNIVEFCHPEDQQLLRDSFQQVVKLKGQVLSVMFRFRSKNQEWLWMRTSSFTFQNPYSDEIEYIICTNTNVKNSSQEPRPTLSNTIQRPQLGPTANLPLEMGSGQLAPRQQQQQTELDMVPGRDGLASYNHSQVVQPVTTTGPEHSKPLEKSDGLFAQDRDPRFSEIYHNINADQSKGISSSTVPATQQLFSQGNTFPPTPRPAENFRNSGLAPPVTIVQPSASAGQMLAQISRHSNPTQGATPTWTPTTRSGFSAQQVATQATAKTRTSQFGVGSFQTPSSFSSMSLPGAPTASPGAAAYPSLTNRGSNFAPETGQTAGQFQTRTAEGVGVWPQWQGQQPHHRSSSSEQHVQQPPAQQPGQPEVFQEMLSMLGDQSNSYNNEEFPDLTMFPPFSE
UniProt Q8NBF6: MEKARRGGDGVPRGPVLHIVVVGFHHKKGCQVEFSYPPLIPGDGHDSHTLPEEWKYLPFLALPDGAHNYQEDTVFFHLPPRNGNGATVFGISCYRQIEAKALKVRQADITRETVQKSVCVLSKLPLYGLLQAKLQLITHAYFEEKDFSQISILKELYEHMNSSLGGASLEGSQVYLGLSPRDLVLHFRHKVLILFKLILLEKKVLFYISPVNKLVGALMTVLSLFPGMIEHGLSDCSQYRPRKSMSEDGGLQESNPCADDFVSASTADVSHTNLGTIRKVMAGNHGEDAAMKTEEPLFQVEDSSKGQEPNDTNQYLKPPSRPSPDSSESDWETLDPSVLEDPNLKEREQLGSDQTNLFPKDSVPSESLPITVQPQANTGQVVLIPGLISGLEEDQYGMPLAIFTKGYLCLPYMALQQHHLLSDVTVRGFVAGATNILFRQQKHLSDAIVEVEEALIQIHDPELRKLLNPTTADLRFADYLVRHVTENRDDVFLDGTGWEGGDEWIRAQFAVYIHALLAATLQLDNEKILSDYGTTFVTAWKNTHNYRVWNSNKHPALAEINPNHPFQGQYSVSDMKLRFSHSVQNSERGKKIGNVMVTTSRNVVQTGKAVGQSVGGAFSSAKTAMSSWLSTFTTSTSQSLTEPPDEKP
UniProt O95260: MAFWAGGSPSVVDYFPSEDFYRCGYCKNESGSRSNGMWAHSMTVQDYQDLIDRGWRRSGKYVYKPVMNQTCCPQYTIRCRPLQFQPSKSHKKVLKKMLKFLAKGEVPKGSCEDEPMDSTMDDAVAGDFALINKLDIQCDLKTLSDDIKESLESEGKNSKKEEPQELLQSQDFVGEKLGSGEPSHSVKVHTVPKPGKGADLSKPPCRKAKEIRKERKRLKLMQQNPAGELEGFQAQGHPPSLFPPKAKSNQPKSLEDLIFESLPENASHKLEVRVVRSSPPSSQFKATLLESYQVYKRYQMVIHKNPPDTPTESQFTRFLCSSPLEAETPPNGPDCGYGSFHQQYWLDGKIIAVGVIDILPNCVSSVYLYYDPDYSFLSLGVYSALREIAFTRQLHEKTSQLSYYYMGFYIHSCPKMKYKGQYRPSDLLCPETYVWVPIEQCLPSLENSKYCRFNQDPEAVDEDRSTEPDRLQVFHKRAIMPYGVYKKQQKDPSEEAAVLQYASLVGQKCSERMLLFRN
UniProt Q6PH81: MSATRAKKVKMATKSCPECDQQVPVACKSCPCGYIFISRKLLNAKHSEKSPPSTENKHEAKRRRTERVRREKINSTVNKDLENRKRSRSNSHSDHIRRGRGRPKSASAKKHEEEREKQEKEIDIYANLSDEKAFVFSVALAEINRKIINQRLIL
UniProt Q07021: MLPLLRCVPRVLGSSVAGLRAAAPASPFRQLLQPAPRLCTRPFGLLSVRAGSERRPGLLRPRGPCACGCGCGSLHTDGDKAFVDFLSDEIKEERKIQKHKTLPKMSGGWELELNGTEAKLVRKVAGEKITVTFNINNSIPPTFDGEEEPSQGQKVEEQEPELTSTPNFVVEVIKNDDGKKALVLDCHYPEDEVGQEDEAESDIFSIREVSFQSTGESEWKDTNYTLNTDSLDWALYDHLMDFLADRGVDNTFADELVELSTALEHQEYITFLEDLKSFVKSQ
UniProt Q9BV29: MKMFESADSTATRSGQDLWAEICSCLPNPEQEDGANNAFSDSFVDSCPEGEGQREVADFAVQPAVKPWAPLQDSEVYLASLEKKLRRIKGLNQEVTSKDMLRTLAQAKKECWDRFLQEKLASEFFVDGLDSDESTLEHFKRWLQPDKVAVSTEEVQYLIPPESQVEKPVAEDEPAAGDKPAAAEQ
UniProt Q13895: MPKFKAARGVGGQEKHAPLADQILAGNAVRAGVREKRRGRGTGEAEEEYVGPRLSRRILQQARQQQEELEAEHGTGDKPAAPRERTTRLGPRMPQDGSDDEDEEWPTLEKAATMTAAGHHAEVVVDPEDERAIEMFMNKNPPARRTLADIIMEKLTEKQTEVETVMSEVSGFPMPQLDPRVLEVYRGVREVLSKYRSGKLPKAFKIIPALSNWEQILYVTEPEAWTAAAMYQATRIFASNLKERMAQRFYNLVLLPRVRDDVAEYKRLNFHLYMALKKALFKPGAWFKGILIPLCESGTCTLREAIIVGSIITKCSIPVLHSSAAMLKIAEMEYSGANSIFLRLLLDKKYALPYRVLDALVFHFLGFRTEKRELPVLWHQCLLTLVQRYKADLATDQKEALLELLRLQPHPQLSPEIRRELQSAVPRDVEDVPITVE
UniProt Q9Y4P1: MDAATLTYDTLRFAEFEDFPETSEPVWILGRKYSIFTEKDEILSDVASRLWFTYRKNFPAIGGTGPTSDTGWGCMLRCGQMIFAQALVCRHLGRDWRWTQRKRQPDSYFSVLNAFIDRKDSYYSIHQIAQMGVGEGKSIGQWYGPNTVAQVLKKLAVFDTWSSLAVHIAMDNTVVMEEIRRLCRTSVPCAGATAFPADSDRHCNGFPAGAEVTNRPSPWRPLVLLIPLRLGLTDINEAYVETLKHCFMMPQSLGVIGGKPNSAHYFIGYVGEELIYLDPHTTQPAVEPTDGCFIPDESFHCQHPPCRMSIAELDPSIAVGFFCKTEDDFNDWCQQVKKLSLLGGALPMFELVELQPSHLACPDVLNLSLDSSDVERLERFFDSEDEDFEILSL
UniProt Q6PGQ7, whole entry: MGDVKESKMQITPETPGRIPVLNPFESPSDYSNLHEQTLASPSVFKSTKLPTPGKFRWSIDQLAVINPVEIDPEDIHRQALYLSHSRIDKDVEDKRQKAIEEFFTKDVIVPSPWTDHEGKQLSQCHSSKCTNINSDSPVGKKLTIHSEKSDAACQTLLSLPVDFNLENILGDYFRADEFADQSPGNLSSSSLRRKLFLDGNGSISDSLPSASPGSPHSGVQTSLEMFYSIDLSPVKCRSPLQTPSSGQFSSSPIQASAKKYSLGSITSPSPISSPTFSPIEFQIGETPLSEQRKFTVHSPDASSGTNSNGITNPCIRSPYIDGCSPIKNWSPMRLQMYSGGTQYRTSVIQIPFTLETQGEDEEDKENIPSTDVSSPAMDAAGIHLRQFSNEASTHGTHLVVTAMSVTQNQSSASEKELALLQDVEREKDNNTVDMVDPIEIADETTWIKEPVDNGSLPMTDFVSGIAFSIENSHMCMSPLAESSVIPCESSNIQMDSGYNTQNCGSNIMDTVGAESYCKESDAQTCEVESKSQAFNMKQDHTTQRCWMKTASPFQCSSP
UniProt O95671: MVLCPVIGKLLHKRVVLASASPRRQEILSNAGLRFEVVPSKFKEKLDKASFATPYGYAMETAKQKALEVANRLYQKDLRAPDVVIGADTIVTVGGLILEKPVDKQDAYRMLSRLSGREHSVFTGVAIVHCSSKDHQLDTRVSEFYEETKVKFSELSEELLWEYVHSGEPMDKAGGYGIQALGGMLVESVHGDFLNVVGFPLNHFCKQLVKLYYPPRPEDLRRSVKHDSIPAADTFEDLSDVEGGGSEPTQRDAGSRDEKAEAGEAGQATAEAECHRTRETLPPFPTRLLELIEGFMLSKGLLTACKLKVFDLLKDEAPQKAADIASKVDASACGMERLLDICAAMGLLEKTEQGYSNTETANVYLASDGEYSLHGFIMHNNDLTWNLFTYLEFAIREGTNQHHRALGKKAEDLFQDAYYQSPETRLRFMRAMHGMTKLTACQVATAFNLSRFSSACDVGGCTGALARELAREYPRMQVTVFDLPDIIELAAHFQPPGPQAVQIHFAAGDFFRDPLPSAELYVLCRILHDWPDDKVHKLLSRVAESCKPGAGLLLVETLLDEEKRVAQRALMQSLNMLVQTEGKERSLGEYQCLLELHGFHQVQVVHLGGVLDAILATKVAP
UniProt Q96LT7: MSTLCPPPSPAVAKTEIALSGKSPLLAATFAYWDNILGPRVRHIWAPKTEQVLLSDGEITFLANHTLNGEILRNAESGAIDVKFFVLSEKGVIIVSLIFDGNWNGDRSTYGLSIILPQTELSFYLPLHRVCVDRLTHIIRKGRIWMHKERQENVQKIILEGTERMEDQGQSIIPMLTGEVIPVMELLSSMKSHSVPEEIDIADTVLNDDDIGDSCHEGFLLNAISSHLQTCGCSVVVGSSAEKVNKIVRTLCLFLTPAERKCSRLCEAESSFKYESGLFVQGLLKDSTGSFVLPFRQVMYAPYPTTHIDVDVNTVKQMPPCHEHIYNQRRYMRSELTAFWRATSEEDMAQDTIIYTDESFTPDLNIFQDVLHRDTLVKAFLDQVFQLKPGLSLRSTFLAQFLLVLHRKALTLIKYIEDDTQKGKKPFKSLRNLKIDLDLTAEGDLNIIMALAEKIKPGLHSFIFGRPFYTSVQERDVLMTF
UniProt O60566, whole entry: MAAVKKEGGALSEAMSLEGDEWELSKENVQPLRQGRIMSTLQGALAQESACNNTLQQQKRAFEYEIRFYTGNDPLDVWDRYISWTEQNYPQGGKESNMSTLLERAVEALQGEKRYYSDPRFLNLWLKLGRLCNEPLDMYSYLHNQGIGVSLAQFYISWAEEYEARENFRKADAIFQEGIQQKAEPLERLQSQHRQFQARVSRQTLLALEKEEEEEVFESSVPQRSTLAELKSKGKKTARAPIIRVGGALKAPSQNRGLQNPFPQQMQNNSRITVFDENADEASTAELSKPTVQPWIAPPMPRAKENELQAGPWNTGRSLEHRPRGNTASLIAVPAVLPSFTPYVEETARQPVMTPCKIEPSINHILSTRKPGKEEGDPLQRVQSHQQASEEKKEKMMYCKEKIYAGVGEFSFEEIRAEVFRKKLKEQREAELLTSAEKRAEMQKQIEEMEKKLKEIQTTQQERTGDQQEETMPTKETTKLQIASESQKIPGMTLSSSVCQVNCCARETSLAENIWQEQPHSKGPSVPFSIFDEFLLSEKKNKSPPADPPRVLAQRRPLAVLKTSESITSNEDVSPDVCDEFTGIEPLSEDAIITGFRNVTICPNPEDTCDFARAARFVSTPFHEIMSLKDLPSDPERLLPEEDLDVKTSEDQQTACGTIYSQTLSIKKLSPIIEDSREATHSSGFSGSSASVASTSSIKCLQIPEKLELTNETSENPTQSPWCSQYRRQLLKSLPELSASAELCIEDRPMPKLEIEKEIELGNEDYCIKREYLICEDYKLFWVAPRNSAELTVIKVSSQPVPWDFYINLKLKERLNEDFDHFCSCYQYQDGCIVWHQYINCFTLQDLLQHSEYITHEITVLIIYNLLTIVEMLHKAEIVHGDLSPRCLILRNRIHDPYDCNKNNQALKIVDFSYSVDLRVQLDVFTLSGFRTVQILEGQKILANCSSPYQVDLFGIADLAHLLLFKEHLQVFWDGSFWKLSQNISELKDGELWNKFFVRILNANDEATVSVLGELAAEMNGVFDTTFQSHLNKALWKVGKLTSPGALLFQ
UniProt P30043: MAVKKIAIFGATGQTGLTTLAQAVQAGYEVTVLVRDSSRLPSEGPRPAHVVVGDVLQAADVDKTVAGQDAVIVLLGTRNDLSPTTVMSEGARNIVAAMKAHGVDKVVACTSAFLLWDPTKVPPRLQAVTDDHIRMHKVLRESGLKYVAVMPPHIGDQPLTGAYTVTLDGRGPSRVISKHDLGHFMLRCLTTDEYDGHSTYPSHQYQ
UniProt P52566: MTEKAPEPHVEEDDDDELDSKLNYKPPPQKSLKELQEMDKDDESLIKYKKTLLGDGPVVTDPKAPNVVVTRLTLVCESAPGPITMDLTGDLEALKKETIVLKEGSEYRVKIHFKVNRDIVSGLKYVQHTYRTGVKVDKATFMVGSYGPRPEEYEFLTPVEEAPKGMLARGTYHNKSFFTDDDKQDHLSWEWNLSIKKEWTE

The list shows a part of the results.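 Rule for the calls: active = dose-dependent thermal stabilisation significant by F-test of dose-response against flat model at 10% FDR; inactive = not significant.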

Compound in this assay: Nc1nc2c(ncn2[C@@H]2O[C@H](COP(=O)(O)OP(=O)(O)OP(=O)(O)O)[C@@H](O)[C@H]2O)c(=O)[nH]1
Briefly: dose-dependent thermal stabilisation call (2D-TPP, DLPTP, 10% FDR) (binary (1 = stabilised)); higher = stabilised by the compound. Particulars: system: Jurkat gel-filtered lysate; concentration range 1-500 µM.
ATXN1L (UniProt P0C7T5): the “dose-dependent thermal stabilisation call” value is inactive: 0.

Take ARNT (UniProt P27540): the “dose-dependent thermal stabilisation call” value was inactive: 0.

As to BRAT1 (UniProt Q6PJG6), the “dose-dependent thermal stabilisation call” value is inactive: 0.

Take C5orf22 (UniProt Q49AR2): the “dose-dependent thermal stabilisation call” value is inactive: 0.

AVL9 (UniProt Q8NBF6): the “dose-dependent thermal stabilisation call” value is inactive: 0.

For the target ATE1 (UniProt O95260), the “dose-dependent thermal stabilisation call” value is inactive: 0.

Turning to C16orf87 (UniProt Q6PH81), the “dose-dependent thermal stabilisation call” value is inactive: 0.

ARID4B (UniProt Q4LE39): the “dose-dependent thermal stabilisation call” value was inactive: 0.

With ATF7IP (UniProt Q6VMQ6), the “dose-dependent thermal stabilisation call” value was inactive: 0.

Consider BCAS3 (UniProt Q9H6U6), for which the “dose-dependent thermal stabilisation call” value is inactive: 0.

As to ATG14 (UniProt Q6ZNE5), the “dose-dependent thermal stabilisation call” value is inactive: 0.

C1QBP (UniProt Q07021): the “dose-dependent thermal stabilisation call” value was inactive: 0.

Turning to ARPC4 (UniProt P59998), the “dose-dependent thermal stabilisation call” value was active: 1.

As for BCOR (UniProt Q6W2J9), the “dose-dependent thermal stabilisation call” value was inactive: 0.

Take C15orf57 (UniProt Q9BV29): the “dose-dependent thermal stabilisation call” value is inactive: 0.

With BSDC1 (UniProt Q9NW68), the “dose-dependent thermal stabilisation call” value was inactive: 0.

For BCL9 (UniProt O00512), the “dose-dependent thermal stabilisation call” value is inactive: 0.

Regarding BRAP (UniProt Q7Z569), the “dose-dependent thermal stabilisation call” value was inactive: 0.

As for CAMKMT (UniProt Q7Z624), the “dose-dependent thermal stabilisation call” value is inactive: 0.

As for BYSL (UniProt Q13895), the “dose-dependent thermal stabilisation call” value is inactive: 0.

As to CARD8 (UniProt Q9Y2G2), the “dose-dependent thermal stabilisation call” value was inactive: 0.

As to CAPN1 (UniProt P07384), the “dose-dependent thermal stabilisation call” value was inactive: 0.

Turning to BCL11B (UniProt Q9C0K0), the “dose-dependent thermal stabilisation call” value is inactive: 0.

With BIRC6 (UniProt Q9NR09), the “dose-dependent thermal stabilisation call” value is inactive: 0.

As to ATG4B (UniProt Q9Y4P1), the “dose-dependent thermal stabilisation call” value was inactive: 0.

In the case of ARHGEF2 (UniProt Q92974), the “dose-dependent thermal stabilisation call” value was inactive: 0.

In the case of BORA (UniProt Q6PGQ7), the “dose-dependent thermal stabilisation call” value was inactive: 0.

For the target ASMTL (UniProt O95671), the “dose-dependent thermal stabilisation call” value was inactive: 0.

Turning to C9orf72 (UniProt Q96LT7), the “dose-dependent thermal stabilisation call” value is inactive: 0.

With ATP7A (UniProt Q04656), the “dose-dependent thermal stabilisation call” value is inactive: 0.

C1orf123 (UniProt Q9NWV4): the “dose-dependent thermal stabilisation call” value is inactive: 0.

As to BUB1B (UniProt O60566), the “dose-dependent thermal stabilisation call” value was inactive: 0.

As for B3GNTL1 (UniProt Q67FW5), the “dose-dependent thermal stabilisation call” value is inactive: 0.

For BLVRB (UniProt P30043), the “dose-dependent thermal stabilisation call” value is inactive: 0.

On to C2CD5 (UniProt Q86YS7), for which the “dose-dependent thermal stabilisation call” value is inactive: 0.

With ARHGDIB (UniProt P52566), the “dose-dependent thermal stabilisation call” value was inactive: 0.
